Here are results for three molecules from publication PMC10359276, “Involvement of skin TRPV3 in temperature detection regulated by TMEM79 in mice” (Nature Communications, 2023).

These are yes or no findings as the source states them, for the method shown. In cells and extracts the contact can be indirect. Some entries that bind do so weakly or less than the wild type. For part of these data: Tags and fused reporters may be left off the sequences shown.

The target in assay [1] is T1, C-terminal Flag-tagged mouse TMEM79 (mouse) (UniProt Q9D709).
T1 sequence: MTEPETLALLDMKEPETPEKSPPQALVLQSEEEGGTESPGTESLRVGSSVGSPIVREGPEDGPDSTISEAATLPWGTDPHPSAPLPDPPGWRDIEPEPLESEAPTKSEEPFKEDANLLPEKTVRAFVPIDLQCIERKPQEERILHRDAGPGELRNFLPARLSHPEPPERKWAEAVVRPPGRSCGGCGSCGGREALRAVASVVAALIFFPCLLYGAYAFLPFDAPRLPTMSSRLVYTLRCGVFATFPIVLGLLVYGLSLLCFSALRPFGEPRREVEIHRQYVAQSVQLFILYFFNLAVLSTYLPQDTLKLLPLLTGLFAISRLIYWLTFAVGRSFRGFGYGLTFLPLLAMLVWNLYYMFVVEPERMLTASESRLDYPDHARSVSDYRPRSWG
The experiment in a line: co-IP; HEK293T cells co-transfected with myc-Trpv3 and Tmem79-flag; RIPA lysate; IP with mouse anti-MYC or mouse anti-FLAG overnight at 4 °C, protein G beads; blots with anti-myc and anti-flag.

The target in assay [2] is T2, mouse TMEM79 (construct of the PLA assay) (mouse) (UniProt Q9D709).
T2 sequence: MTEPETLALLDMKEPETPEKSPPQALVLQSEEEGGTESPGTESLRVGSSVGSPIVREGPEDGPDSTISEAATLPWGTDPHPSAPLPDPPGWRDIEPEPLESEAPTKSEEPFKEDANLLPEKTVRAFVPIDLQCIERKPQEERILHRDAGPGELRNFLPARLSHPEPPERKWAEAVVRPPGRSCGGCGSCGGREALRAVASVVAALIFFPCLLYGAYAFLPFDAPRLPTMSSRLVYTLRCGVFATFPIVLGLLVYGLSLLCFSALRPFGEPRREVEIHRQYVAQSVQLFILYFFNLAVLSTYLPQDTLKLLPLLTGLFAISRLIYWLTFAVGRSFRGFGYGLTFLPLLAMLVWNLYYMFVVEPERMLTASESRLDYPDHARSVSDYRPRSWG
Put plainly: proximity ligation; Duolink PLA in fixed, permeabilised HEK293 cells transfected with mTRPV3 and mTMEM79; mouse anti-TRPV3 and rabbit anti-TMEM79 primary antibodies; control: empty vectors.

Assay [3] addresses T3, N-terminal myc-tagged mouse TRPV3 (mouse) (UniProt Q8K424).
T3 sequence: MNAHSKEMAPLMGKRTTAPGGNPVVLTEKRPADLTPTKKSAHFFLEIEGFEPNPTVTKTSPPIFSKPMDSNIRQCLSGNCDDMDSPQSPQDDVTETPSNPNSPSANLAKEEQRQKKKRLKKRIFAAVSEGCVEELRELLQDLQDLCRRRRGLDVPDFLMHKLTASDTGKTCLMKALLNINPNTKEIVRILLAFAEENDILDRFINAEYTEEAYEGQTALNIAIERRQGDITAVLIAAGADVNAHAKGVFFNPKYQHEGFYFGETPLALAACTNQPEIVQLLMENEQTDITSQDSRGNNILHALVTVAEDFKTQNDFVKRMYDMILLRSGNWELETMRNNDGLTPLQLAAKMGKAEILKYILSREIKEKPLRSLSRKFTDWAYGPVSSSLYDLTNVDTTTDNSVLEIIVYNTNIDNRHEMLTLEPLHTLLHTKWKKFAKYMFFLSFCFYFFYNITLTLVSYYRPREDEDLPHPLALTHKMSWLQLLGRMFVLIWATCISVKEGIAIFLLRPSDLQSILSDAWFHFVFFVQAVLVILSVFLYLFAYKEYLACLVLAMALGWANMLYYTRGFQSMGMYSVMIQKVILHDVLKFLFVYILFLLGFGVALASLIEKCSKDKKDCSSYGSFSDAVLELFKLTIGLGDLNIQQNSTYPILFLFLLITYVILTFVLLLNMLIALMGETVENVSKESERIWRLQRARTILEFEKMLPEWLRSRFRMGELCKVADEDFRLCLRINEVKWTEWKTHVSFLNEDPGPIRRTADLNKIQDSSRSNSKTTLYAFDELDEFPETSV
The experiment in a line: co-IP; HEK293T cells co-transfected with myc-Trpv3 and Tmem79-flag; RIPA lysate; IP with mouse anti-MYC or mouse anti-FLAG overnight at 4 °C, protein G beads; blots with anti-myc and anti-flag.

B1: N-terminal myc-tagged mouse TRPV3 (protein, UniProt Q8K424 1-791)
chain: MNAHSKEMAPLMGKRTTAPGGNPVVLTEKRPADLTPTKKSAHFFLEIEGFEPNPTVTKTSPPIFSKPMDSNIRQCLSGNCDDMDSPQSPQDDVTETPSNPNSPSANLAKEEQRQKKKRLKKRIFAAVSEGCVEELRELLQDLQDLCRRRRGLDVPDFLMHKLTASDTGKTCLMKALLNINPNTKEIVRILLAFAEENDILDRFINAEYTEEAYEGQTALNIAIERRQGDITAVLIAAGADVNAHAKGVFFNPKYQHEGFYFGETPLALAACTNQPEIVQLLMENEQTDITSQDSRGNNILHALVTVAEDFKTQNDFVKRMYDMILLRSGNWELETMRNNDGLTPLQLAAKMGKAEILKYILSREIKEKPLRSLSRKFTDWAYGPVSSSLYDLTNVDTTTDNSVLEIIVYNTNIDNRHEMLTLEPLHTLLHTKWKKFAKYMFFLSFCFYFFYNITLTLVSYYRPREDEDLPHPLALTHKMSWLQLLGRMFVLIWATCISVKEGIAIFLLRPSDLQSILSDAWFHFVFFVQAVLVILSVFLYLFAYKEYLACLVLAMALGWANMLYYTRGFQSMGMYSVMIQKVILHDVLKFLFVYILFLLGFGVALASLIEKCSKDKKDCSSYGSFSDAVLELFKLTIGLGDLNIQQNSTYPILFLFLLITYVILTFVLLLNMLIALMGETVENVSKESERIWRLQRARTILEFEKMLPEWLRSRFRMGELCKVADEDFRLCLRINEVKWTEWKTHVSFLNEDPGPIRRTADLNKIQDSSRSNSKTTLYAFDELDEFPETSV
In the case of B1, in assay [1], the binding entry is “binds”.

B2: mouse TRPV3 (construct of the PLA assay) (protein, UniProt Q8K424 1-791)
chain: MNAHSKEMAPLMGKRTTAPGGNPVVLTEKRPADLTPTKKSAHFFLEIEGFEPNPTVTKTSPPIFSKPMDSNIRQCLSGNCDDMDSPQSPQDDVTETPSNPNSPSANLAKEEQRQKKKRLKKRIFAAVSEGCVEELRELLQDLQDLCRRRRGLDVPDFLMHKLTASDTGKTCLMKALLNINPNTKEIVRILLAFAEENDILDRFINAEYTEEAYEGQTALNIAIERRQGDITAVLIAAGADVNAHAKGVFFNPKYQHEGFYFGETPLALAACTNQPEIVQLLMENEQTDITSQDSRGNNILHALVTVAEDFKTQNDFVKRMYDMILLRSGNWELETMRNNDGLTPLQLAAKMGKAEILKYILSREIKEKPLRSLSRKFTDWAYGPVSSSLYDLTNVDTTTDNSVLEIIVYNTNIDNRHEMLTLEPLHTLLHTKWKKFAKYMFFLSFCFYFFYNITLTLVSYYRPREDEDLPHPLALTHKMSWLQLLGRMFVLIWATCISVKEGIAIFLLRPSDLQSILSDAWFHFVFFVQAVLVILSVFLYLFAYKEYLACLVLAMALGWANMLYYTRGFQSMGMYSVMIQKVILHDVLKFLFVYILFLLGFGVALASLIEKCSKDKKDCSSYGSFSDAVLELFKLTIGLGDLNIQQNSTYPILFLFLLITYVILTFVLLLNMLIALMGETVENVSKESERIWRLQRARTILEFEKMLPEWLRSRFRMGELCKVADEDFRLCLRINEVKWTEWKTHVSFLNEDPGPIRRTADLNKIQDSSRSNSKTTLYAFDELDEFPETSV
As for B2, in assay [2], the binding entry is given as “binds”.

B3: C-terminal Flag-tagged mouse TMEM79 (protein, UniProt Q9D709 1-391)
chain: MTEPETLALLDMKEPETPEKSPPQALVLQSEEEGGTESPGTESLRVGSSVGSPIVREGPEDGPDSTISEAATLPWGTDPHPSAPLPDPPGWRDIEPEPLESEAPTKSEEPFKEDANLLPEKTVRAFVPIDLQCIERKPQEERILHRDAGPGELRNFLPARLSHPEPPERKWAEAVVRPPGRSCGGCGSCGGREALRAVASVVAALIFFPCLLYGAYAFLPFDAPRLPTMSSRLVYTLRCGVFATFPIVLGLLVYGLSLLCFSALRPFGEPRREVEIHRQYVAQSVQLFILYFFNLAVLSTYLPQDTLKLLPLLTGLFAISRLIYWLTFAVGRSFRGFGYGLTFLPLLAMLVWNLYYMFVVEPERMLTASESRLDYPDHARSVSDYRPRSWG
As to B3, the binding result in assay [3] is given as “binds”.
